# PubChem BioAssay AID2685 (National Center for Advancing Translational Sciences (NCATS), 2010)
# This is one part of the list. Shown are side measurements of this screen, not its main read-out; they come without a call. The list favours compounds with an active or inconclusive main result. The note in brackets gives the kind of curve behind each potency; many fits are weak.
# Test: qHTS Assay for Lipid Storage Modulators in Drosophila S3 Cells;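 for cell number change: cells counted by Cell Tracker Red CMTPX staining in the red channel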
# Conditions: BODIPY lipid droplet fluorescence, 18-24 h; for cell number change: measured here: cell count max response, cells fed with added oleic acid
# How it was run: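 Drosophila S3 cells loaded with oleic acid (400 uM, as added) and compounds at several concentrations; lipid droplets imaged by 488-nm laser-scanning cytometry, 500–530 nm intensity and object ratio to cell channel. Percent activity normalized to 20 uM Triacsin C.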
# [1] = measured here: lipid fluorescence (Fed channel) AC50, cells fed with added oleic acid
# [2] = measured here: cell number channel AC50, cells fed with added oleic acid
Structure (SMILES),AC50 [1],cell number change,AC50 [2]
O=C(N/N=C1/CCSC1)c1cc(Br)ccc1O,"0.00517 µM [falling, full curve, poor fit]",–,–
O=C(NCCO)C1(c2ccc(Cl)cc2)CCCC1,"6.51 µM [falling, single point]",–,–
CN(C)CCn1c(=O)n(-c2cccc(Cl)c2)c(=O)c2c3c(sc21)CCCCC3,"32.6 µM [falling, single point]",-19.6%,–
COc1cc(/C=C2/N=C(C3CCCCC3)OC2=O)cc(OC)c1OC,"2.31 µM [falling, partial curve]",1.08%,–
Nc1ccc(N2CCCCC2)cc1N1CCCCC1,"29.1 µM [falling, single point]",-47.8%,"29.1 µM [falling, single point]"
Oc1ccc(/C=N/Nc2cccc(Cl)n2)c(O)c1,"20.6 µM [falling, single point]",-1.72%,–
O=S(=O)(c1ccc(F)cc1)N1CCN(c2ccc(F)cc2)CC1,"32.6 µM [falling, single point]",-32.8%,–
Cc1nc(C(=O)NNC(=O)c2ccc(Cl)cc2)c(C(F)(F)F)o1,–,16.3%,–
NC(=S)N=Nc1c(O)n(CC(=O)Nc2ccccc2)c2ccccc12,"32.6 µM [rising, single point]",131%,"20.6 µM [rising, partial curve]"
Cc1cc(C(=O)OCC(=O)NC(C)c2ccc(F)cc2)c(C)o1 (stereo not drawn),"6.51 µM [rising, single point]",-5.19%,"6.51 µM [rising, single point]"
OCCNC(=S)NCc1ccccc1,"0.184 µM [falling, full curve]",-20.4%,–
O=C(NCCCN1CCN(Cc2ccccc2)CC1)c1nnc(Cc2c(F)cccc2Cl)o1,"18.4 µM [rising, partial curve]",-1.52%,"0.146 µM [falling, full curve, poor fit]"
CCO[C@@H]1OC(C(=O)Nc2ccccc2)=C[C@H](c2ccc3c(c2)OCO3)[C@H]1CCCO,"2.06 µM [rising, single point]",-7.94%,–
O=C(NC1CCCCC1)c1ccc(CS(=O)Cc2ccccc2Cl)o1 (stereo not drawn),"2.31 µM [rising, full curve]",19.4%,–
COc1ccc(NC(=O)CN(C)C(=O)CSCc2c(C)noc2C)cc1,–,-11.3%,–
COc1ccc(NC(=O)COC(=O)c2c(-c3ccccc3)noc2C)cc1,"0.0146 µM [falling, partial curve, poor fit]",-6.24%,–
CCOC(=O)CC(=O)CSc1nc(C)cc(-c2cccnc2)c1C#N,"13 µM [rising, partial curve, poor fit]",4.72%,–
O=C(O)CC12CC3CC(C1)CC(n1ncc(NCc4ccccc4Cl)c(Cl)c1=O)(C3)C2,"29.1 µM [falling, partial curve, poor fit]",-44.9%,"9.2 µM [falling, partial curve]"
COC(=O)c1ccccc1NC(=O)c1cc2nc(C3CC3)cc(C(F)(F)F)n2n1,"0.0206 µM [falling, full curve, poor fit]",-15.5%,–
O=C(O)c1cccc(NC2=C(Cl)C(=O)c3ccccc3C2=O)c1,–,-47%,"29.1 µM [falling, single point]"
O=C(O)c1ccc(-c2ccccc2)[nH]1,"1.64 µM [falling, full curve, poor fit]",-14%,"6.51 µM [falling, single point]"
COCC(C)n1c(SCC(=O)NC(=O)Nc2ccc3c(c2)OCCO3)nc2ccccc2c1=O (stereo not drawn),"0.291 µM [rising, partial curve, poor fit]",–,–
CC(=O)c1c(C)[nH]c(C(=O)OC(C)C(=O)Nc2ccc(C)c(S(=O)(=O)N3CCOCC3)c2)c1C (stereo not drawn),"20.6 µM [rising, partial curve]",39%,"29.1 µM [rising, single point]"
COc1cc(OC)c(NS(=O)(=O)c2ccc(Cl)c(C(=O)OC(C)C(=O)N3CCCC3)c2)cc1Cl (stereo not drawn),"20.6 µM [rising, partial curve]",-1.5%,–
CCOc1cc([C@H]2[C@@H]3CCCC[C@]3(O)CCN2CC(=O)NCc2ccco2)ccc1O,–,-3.44%,–
COc1cccc(/C=C/C(=O)NNC(=O)c2ccco2)c1OC,–,-17.4%,–
COc1c(Cl)cnn(-c2cccc(C)c2)c1=O,"1.46 µM [rising, partial curve]",3.88%,–
O=C(c1cc(-c2cccnc2)nc2ccc(Cl)cc12)N1CCN(S(=O)(=O)c2cccs2)CC1,"6.51 µM [rising, single point]",-5.95%,–

# Arranged by molar mass (descending): part of the list above.
Structure (SMILES),AC50 [1],cell number change,AC50 [2]
O=C(NC1CCCCC1)c1ccc(CS(=O)Cc2ccccc2Cl)o1 (stereo not drawn),"2.31 µM [rising, full curve]",19.4%,–
O=S(=O)(c1ccc(F)cc1)N1CCN(c2ccc(F)cc2)CC1,"32.6 µM [falling, single point]",-32.8%,–
O=C(O)c1cccc(NC2=C(Cl)C(=O)c3ccccc3C2=O)c1,–,-47%,"29.1 µM [falling, single point]"
COc1c(Cl)cnn(-c2cccc(C)c2)c1=O,"1.46 µM [rising, partial curve]",3.88%,–

# The list goes on:

Structure (SMILES),AC50 [1],cell number change,AC50 [2]
CCCCC1CCC(C(=O)N2CCOCC2)CC1 (stereo not drawn),"29.1 µM [rising, single point]",-30.7%,"5.8 µM [falling, full curve, poor fit]"
COc1ccc(C(=O)NC(C(=O)OCC(=O)Nc2sccc2C(N)=O)C(C)C)cc1 (stereo not drawn),"1.64 µM [rising, full curve, poor fit]",9.27%,"0.0116 µM [rising, full curve, poor fit]"
O=C(Nc1ccc(Cl)c([N+](=O)[O-])c1)c1ccncc1,–,9.33%,"4.61 µM [falling, single point]"
CCOc1ccc(CCNC(=O)COC(=O)/C=C/c2ccc(OCC#N)c(OC)c2)cc1OCC,"1.46 µM [falling, full curve]",-72.4%,"1.84 µM [falling, full curve]"
CCC1=NN2C(=N)/C(=C/c3cc(C)n(-c4ccccc4)c3C)C(=O)N=C2S1,"29.1 µM [rising, single point]",38.8%,"0.651 µM [rising, partial curve, poor fit]"
Fc1ccc(NC(=S)Nc2ccc3nccnc3c2)cc1,–,130%,"29.1 µM [rising, single point]"
Cc1cc(NC(=O)NC2CCCN2S(=O)(=O)c2ccc(Cl)cc2)no1 (stereo not drawn),"0.116 µM [rising, full curve]",6.98%,–
O=c1c2ccccc2nc(SCc2nc(-c3ccccc3)no2)n1-c1ccc(F)cc1,"0.461 µM [rising, full curve]",–,"0.259 µM [rising, full curve, poor fit]"
CC(NC(=S)Nc1cccc(C(F)(F)F)c1)C(C)(C)C (stereo not drawn),"23.1 µM [falling, single point]",-8.62%,–
Cc1ccccc1NC(=O)c1ccc(-c2ccc(Cl)cc2Cl)o1,"2.06 µM [rising, partial curve]",-7.79%,"2.31 µM [rising, partial curve]"
CC1CC(C)(C)NC(=S)N1CC(=O)NCc1ccc(F)cc1 (stereo not drawn),"0.731 µM [rising, full curve, poor fit]",–,–
Cc1cc(N2C(=O)C(O)=C(C(=O)c3cc4ccccc4o3)C2c2ccc(Br)cc2)no1 (stereo not drawn),"18.4 µM [rising, single point]",10.9%,–
COc1ccc(C(=O)NCC(=O)NC2=NCCS2)cc1,"23.1 µM [falling, partial curve]",-38.2%,"10.3 µM [falling, partial curve]"
Cc1cc(C(F)(F)F)nn1CCCNC(=O)c1cnccn1,"2.06 µM [rising, full curve]",12.7%,–
O=C(NN1C(=O)/C(=C/c2cccc(O)c2)SC1=S)c1ccccc1O,"20.6 µM [rising, partial curve]",-14.5%,–
COc1cc2c3nnc(-c4ccc(F)cc4)c-3cn(Cc3ccccc3)c2cc1OC,"29.1 µM [falling, single point]",1.35%,–
Cc1cc(/C=N\NC(=O)COc2cccc3cccnc23)c(C)n1-c1ccccc1,"6.51 µM [rising, single point]",9.97%,–
CCOc1cc2c(cc1C(C)(C)C)NC(=O)CS2,"2.91 µM [rising, partial curve]",-40.9%,"29.1 µM [falling, single point]"
Cc1cc(OCC(=O)NCCc2c[nH]c3ccccc23)c2c(C)c(C)c(=O)oc2c1,"5.17 µM [falling, full curve]",-35%,"23.1 µM [falling, single point]"
Cc1ccc2nc(NCc3ccccc3)c(C=NCc3cccnc3)c(=O)n2c1,"2.06 µM [rising, single point]",5.8%,–
Cc1cccc(NC(=O)CC2CCC2)c1,–,-50%,"29.1 µM [falling, single point]"
CCCNCC1C(Oc2ccc(Cl)cc2)C(=O)N1c1ccccc1C (stereo not drawn),"6.51 µM [falling, single point]",-9.29%,"0.92 µM [falling, full curve]"
O=C(N/N=C/c1ccccc1O)c1cccc2ccccc12,–,-39.6%,"29.1 µM [falling, single point]"
COc1ccccc1C(=O)NCCNc1nc2cc(C)cc(C)c2cc1C#N,"29.1 µM [falling, single point]",-0.676%,–
Cc1cccc(NC(=O)CSc2nnc(CNC(=O)c3ccc(S(=O)(=O)N(C)C)cc3)n2-c2ccccc2)c1,"2.91 µM [rising, full curve]",–,–
O=c1cc(CN2CCOCC2)c2c(ccc3ccccc32)o1,"0.651 µM [rising, full curve, poor fit]",–,"5.8 µM [rising, single point]"
O=C(COC(=O)C1CCN(S(=O)(=O)c2ccccc2)CC1)NCCc1ccccc1,"16.4 µM [falling, single point]",-46.8%,"18.4 µM [falling, single point]"
